In PubChem BioAssay AID1645882 (National Center for Advancing Translational Sciences (NCATS), 2021):
This list holds what a sample rich in hits left over. Records with an inconclusive call do not appear. The source made the active and inactive calls. Calls come from the whole dose curve; as a rule, active = well fitted inhibition curve with a large enough effect; inconclusive = small, poorly fitted or top-dose-only effect; inactive = no such curve, though single readings can be large or run the other way.

Chains of the proteins cited; added tags and fusions are not shown. Lines headed by an entry give the natural chain unless they say otherwise; changes in a name come on top.
UniProt O95398: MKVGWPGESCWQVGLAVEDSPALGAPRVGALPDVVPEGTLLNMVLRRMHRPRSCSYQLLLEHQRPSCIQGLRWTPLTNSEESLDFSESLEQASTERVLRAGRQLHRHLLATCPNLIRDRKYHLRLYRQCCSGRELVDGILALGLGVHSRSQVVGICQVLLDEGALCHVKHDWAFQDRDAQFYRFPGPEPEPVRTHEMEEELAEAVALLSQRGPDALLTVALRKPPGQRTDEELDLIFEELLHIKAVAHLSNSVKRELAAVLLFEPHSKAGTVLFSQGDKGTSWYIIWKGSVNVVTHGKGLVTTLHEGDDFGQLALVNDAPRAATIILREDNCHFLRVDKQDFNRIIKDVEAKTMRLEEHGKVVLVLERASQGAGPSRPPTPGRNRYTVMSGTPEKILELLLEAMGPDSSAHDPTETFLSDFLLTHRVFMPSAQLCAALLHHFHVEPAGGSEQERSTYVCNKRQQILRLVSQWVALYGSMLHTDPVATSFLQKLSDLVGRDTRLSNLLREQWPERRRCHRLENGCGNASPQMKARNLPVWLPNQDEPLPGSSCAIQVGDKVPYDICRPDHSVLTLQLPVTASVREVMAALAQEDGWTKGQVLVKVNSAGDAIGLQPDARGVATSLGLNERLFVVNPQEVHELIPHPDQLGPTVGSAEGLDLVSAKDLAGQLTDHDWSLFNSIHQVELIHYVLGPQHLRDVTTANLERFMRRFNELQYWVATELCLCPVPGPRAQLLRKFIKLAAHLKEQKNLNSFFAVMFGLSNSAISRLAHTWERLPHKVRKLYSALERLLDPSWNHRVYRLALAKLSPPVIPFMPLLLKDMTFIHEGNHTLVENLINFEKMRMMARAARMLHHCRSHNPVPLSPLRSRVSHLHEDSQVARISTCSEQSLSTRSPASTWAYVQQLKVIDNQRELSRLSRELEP

The compounds below were run against Rap guanine nucleotide exchange factor 3 (Homo sapiens) (UniProt O95398) (assay: Validation qHTS for antagonist of cAMP-regulated guanine nucleotide exchange factor 3 (EPAC1)). Details: EPAC1 Rap1B-BODIPY-GDP exchange, fluorescence; at 150 µM (top of the series).
From the text: Assay Provider (PI): Xiaodong Cheng Ph.D.
The University of Texas Medical Branch, […], TX
In multi-cellular eukaryotic organisms, the effects of cAMP are transduced by two ubiquitously-expressed intracellular cAMP receptors, the classic protein kinase A/cAMP-dependent protein kinase (PKA/cAPK) and the more recently discovered exchange protein directly activated by cAMP/cAMP-regulated guanine nucleotide exchange factor (EPAC/cAMP-GEF). Both PKA and EPAC are ubiquitously expressed in all tissues, and an increase in intracellular cAMP levels will lead to the activation of both PKA and EPAC. […]
This qHTS will be used to screen the Molecular Libraries Small Molecule Repository (MLSMR) as a concentration-titration series using the NCGC unique quantitative screening (qHTS) platform to find activators for EPAC1. […] Activators are identified by monitoring the change in fluorescence signal as the exchanged free BODIPY-GDP has a reduced fluorescence compared to Rap1-bound BODIPY-GDP. […]
Briefly, three uL of reagents (100 nM EPAC1, 250 nM RAP1B-BODIPY-GDP, 50 uM GDP) were dispensed into a 1536-well Greiner black solid-bottom medium binding assay plate. […] The assay plates were read at 5 minute intervals for 30 minutes in the ViewLux plate reader using 480nm excitation and 540nm emission filters. […]
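Note: plate controls were DMSO for no effect and ATA control for full effect; nearly all actives have a fitted effect of over 75% in size.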

Row | Structure (SMILES) | activity change, negative = inhibition
1 | CC(C)(C)c1ccc(O)cc1 | inactive: 17.6%
